Laboratory results: patent US4550170A, “6-Phenyl-2,3,5,6-tetrahydroimidazo-[2,1-b]-thiazole derivatives” (Institut Organicheskoi Khimii Akademii Nauk Ukrainskoi SSR, priority 1984, dated 1985)
At least one structure is not confirmed: it was looked up by name or label, or the drawing left a doubt.

How the values were obtained:
immune system = settings: prior art; cited from earlier work
[1] = physical properties of the compounds; format: physicochemical
[2] = tested on: delayed-type hypersensitivity reaction; test: delayed-type hypersensitivity reaction to rat's thymocytes in mice (popliteal lymph nodes); format: in vivo; settings: Table 3 (mice and guinea pigs)
splenocytes = test: effect on cyclic nucleotides (c-AMP, c-GMP) and phosphodiesterase of c-AMP; format: cell-based
human tonsillocytes = test: natural cytotoxicity (natural killers) of human tonsillocytes, 51Cr release; format: cell-based; settings: 1 and 10 μg/ml
Excerpt: The cytolytic effect of tonsillocytes was studied by the radioisotope method using Cr^51. On doing so, the deterioration of target cells (chicken's erythrocytes) by tonsil lymphocytes was regarded as spontaneous cytolysis, while the destruction of the target cells loaded, in addition to the isotopic tracer, with homologous antibodies in the sublytic dose was considered as antibody-dependent cytolysis. […] Afterwards they were twice washed by means of Medium 199 using centrifugation (105 g, 10 minutes). […] The degree of destruction of the target cells was determined radiometrically by the outcome of Cr^51 into the liquid phase.

| Structure (SMILES) | effect in respect of various immunological responses (immune system) | decomposition temperature [1] | hygroscopicity [1] | effect on the development of the delayed-type hypersensitivity reactions ([2]; 100 μg/ml) | effect on the development of the delayed-type hypersensitivity reactions ([2]; 500 and 1,000 μg/ml) | concentrations of c-AMP and c-GMP (splenocytes) | activity of natural killers of tonsil cells (human tonsillocytes) |
| --- | --- | --- | --- | --- | --- | --- | --- |
| O=C(C[N+]1=C2SCCN2CC1c1ccccc1)c1ccccc1 (stereo not shown) [2,3,5,6-tetrahydro-6-phenyl-7-phenacylimidazo-[2,1-b]-thiazolium bromide] | stimulating effect in respect of various immunological responses |  |  |  |  |  |  |
| CCCCCCCCCCOC(=O)C[N+]1=C2SCCN2CC1c1ccccc1 (stereo not shown) [Compound (II), 2,3,5,6-tetrahydro-6-phenyl-7-decyloxycarbonylmethylimidazo-[2,1-b]-thiazolium bromide] |  | above 180 °C | hydroscopic |  |  |  |  |
| COC(=O)C[N+]1=C2SCCN2CC1c1ccccc1 (stereo not shown) [Compound (I), 2,3,5,6-tetrahydro-6-phenyl-7-methoxycarbonylmethylimidazo-[2,1-b]-thiazolium bromide] |  | above 130 °C | hygroscopic | surely stimulates | effectively inhinits |  |  |
| NC(=O)C[N+]1=C2SCCN2CC1c1ccccc1 (stereo not shown) [Compound (III), 2,3,5,6-tetrahydro-6-phenyl-7-carbamoylmethylimidazo-[2,1-b]-thiazolium bromide] |  | above 220 °C |  |  |  | reciprocal variations of concentrations of c-AMP and c-GMP | promoted |
